This passage reports binding results from article PMC7073074.

No constants are given. Whether binding was seen depends on the method and setting. Binding seen in cells or lysates may run through a third protein. These calls come from enrichment with a bait or labelling near it, and not all partners need be listed. Where a sequence is shown, tags or fusion partners need not be part of it.

In assay [1] the target is T1, FLAG-tagged coronin A (Dictyostelium discoideum) (UniProt P27133).
T1 sequence: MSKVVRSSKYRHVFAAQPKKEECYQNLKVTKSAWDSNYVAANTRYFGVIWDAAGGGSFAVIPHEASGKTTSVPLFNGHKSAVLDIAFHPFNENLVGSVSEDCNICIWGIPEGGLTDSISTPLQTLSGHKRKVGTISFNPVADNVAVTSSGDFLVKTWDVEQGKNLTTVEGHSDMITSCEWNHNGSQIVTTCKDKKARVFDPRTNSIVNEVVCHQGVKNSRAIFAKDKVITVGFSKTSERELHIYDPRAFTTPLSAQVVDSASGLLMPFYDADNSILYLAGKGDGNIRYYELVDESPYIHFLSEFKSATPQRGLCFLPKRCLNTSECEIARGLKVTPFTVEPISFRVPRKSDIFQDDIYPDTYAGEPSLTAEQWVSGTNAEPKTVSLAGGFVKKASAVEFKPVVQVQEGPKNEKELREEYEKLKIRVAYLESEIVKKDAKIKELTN
Kind of assay: affinity purification with mass spectrometry; anti-FLAG M2 on lysates of corA- cells with FLAG-CorA against cells with untagged CorA; low salt TBS (25 mM NaCl), 1% Triton X-100, 4 °C; samples of all time points pooled; cutoff log2ratio > 1.5, q-value < 0.05.

Assay [2] deals with T1, FLAG-tagged coronin A (Dictyostelium discoideum). Kind of assay: affinity purification with mass spectrometry; anti-FLAG M2 on lysates of cells with FLAG-CorA or FLAG-CorAΔCC against untagged CorA; low salt TBS, 1% Triton X-100; cells harvested at 48 h.

B1: myosin-K heavy chain (protein, UniProt Q9XXV8 1-858)
chain: MFRLFSSGVDDLVLVSNPSNGEVTSQIGARFDRELIYTNIGEVLIAVNPYKALPITGPEFIKLYQNASGSDASPHIYALAERAYRRMVDENESQCVIISGESGAGKTVSAKLILQYVTSVSPNNSSGGGIGGSGGGNGGIPQYDGGSDDRPSPPMGRGMGMPGMVGRGGLPTRGGGPPSRGGGPPPTRGRGGPPPPIPQNRGAPPPVSNGGAPPPVARGPVAPPPTRGAPPTRGGGPANRGGRGGGPPPVSTSRGGGGYGGSSKTVDVEHIKKVILDSNPLMEAIGNAKTVRNDNSSRFGKYLEIQFDDNNAPVGGLISTFLLEKTRVTFQQKNERNFHIFYQMLGGLDQTTKSEWGLTQATDFYYLAQSKCTTVEDVDDGKDFHEVKAAMETVGISRDEQTEIFRILAAILHVGNIRFQGEAPASVIDETPLQWAASLLGCDPTFLCQSLNHRQIQSGSARHTQYQVPQNPDQSAGLRDALAKTLYERIFDFIVARVNKAMSFSGNCKVIGVLDIYGFEVFERNSFEQFCINYVNERLQQIFIDLTVRGEQREYHEEGMKWKDISFFDNKIVVDLIDGNKPPGIMRVLDDVCKTVHAVDSAAADIKFMEKLIHSIQSHPHLVISNTGSSADEFTIKHYAGEVSYSIEEFCFKNNDNLYASIVGCLQNSTYQFIVSLFPENIQDNKQAPTTSSFKIRQSSSYLVTRLSACTPHYIRCIKPNDKKQPMNFVSSRVEHQVKYLGILENIKVKRSGYAYRQLKDIFLNRFGKIMDVQPRNVQEFVEYITRTHKDINADEFEEGKTKIFVKNPETIFVMEDLLMQKIDPIGYKNRVQAYKENEKLAQMKQGKHSMKQKCLIQ
Regarding B1, in assay [1], the binding result is on record as “binds”.

B2: fimbrin (protein, UniProt P54680 1-610)
chain: MTNFSESEISEFKASFNQFDENGDGQISALELQKILTKCGEKVTGVEVRDMIKEVDTDGNGSIDFKEFLQVMQKARQHSANASPAFASAVKKVGAVNTIGGYSGSTASGVQHSYSDEEKVAYIDWINNCLAKDVDLKSRLPIPEDGDKFFAACNDGLLLCKLINDAVPDTIDERVLNKKNLNAFRINENQVLCINSAKAIGCNVVNIGAGDLVEGRAHLIMGLTWQIIKIGLFARINLTNHPELYRLLHDGETIEDLLKLPVEEILLRWFNYHLAAAGSQRRVKNFSGDIKDSECYTILLKQIAPKDAGVETSALNISNLDQRAVKVLENADKLGCKKFLKPKDIVTGFQKLNLAFVANLFNTHPALEPVEDVVIIEETREEKTFRNWMNSLGVDPFVNNLYEGTYDGLILIQLFDKIYPGLVDHKKVNYPPYKAMGAEMKKIENCNYAIQLGKDCKYSLVGIDGKNVYDKNKTLTLSILWQLMRGHVISILTALSGSGKPIADADIVNWTNSKLSAAGKKQISGFKDSTISTGIPILDVIEAVRPGSVDPALVATSGSAEDNLLNAKLAVSTARKVGAVVFALPEDIVEVKPKMVLTLFASLWQVEMTK
Take B2: the binding result in assay [2] and in assay [1] was “binds” each time.
